{"sequences": {"note": "Sequences of proteins named here, by UniProt entry; tags and fusion partners are left off.", "UniProt Q16665": "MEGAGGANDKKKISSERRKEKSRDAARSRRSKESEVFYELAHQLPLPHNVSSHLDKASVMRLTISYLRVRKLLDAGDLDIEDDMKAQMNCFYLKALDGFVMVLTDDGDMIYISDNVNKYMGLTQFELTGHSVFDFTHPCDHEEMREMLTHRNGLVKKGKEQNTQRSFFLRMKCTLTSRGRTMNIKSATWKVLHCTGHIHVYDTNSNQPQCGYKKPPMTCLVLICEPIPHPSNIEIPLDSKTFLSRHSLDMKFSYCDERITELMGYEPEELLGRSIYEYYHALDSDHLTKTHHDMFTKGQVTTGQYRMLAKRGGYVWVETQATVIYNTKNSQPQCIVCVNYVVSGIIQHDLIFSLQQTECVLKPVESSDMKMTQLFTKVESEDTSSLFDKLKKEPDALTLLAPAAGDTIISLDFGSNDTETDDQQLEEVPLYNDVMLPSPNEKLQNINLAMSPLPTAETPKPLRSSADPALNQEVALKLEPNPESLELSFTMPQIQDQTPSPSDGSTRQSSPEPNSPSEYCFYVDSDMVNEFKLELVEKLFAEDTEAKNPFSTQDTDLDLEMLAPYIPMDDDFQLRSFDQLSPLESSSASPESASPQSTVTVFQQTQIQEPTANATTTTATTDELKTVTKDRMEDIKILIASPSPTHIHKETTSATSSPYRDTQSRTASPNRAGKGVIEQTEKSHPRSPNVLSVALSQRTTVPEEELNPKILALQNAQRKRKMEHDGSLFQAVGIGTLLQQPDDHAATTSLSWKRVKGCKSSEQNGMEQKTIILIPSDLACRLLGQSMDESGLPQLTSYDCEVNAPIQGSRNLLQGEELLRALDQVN"}, "source": "paper PMC10138966", "molecular_target": "hypoxia-inducible factor-1α (HIF1α) (human (endogenous in SGC7901)) (UniProt Q16665)", "assay": "co-IP; SGC7901 cells after hypoxic stimulation for 24 h; which protein was precipitated is not told", "note": "These are yes or no findings as the source states them, for the method shown. In cells and extracts the contact can be indirect. Some results given as binding are weak or reduced against the parent protein; the word gives no strength."}
{"binder": "serine hydroxymethyltransferase 2 (SHMT2) (enzyme, UniProt P34897 30-504) NAAQTQTGEANRGWTGQESLSDSDPEMWELLQREKDRQCRGLELIASENFCSRAALEALGSCLNNKYSEGYPGKRYYGGAEVVDEIELLCQRRALEAFDLDPAQWGVNVQPYSGSPANLAVYTALLQPHDRIMGLDLPDGGHLTHGYMSDVKRISATSIFFESMPYKLNPKTGLIDYNQLALTARLFRPRLIIAGTSAYARLIDYARMREVCDEVKAHLLADMAHISGLVAAKVIPSPFKHADIVTTTTHKTLRGARSGLIFYRKGVKAVDPKTGREIPYTFEDRINFAVFPSLQGGPHNHAIAAVAVALKQACTPMFREYSLQVLKNARAMADALLERGYSLVSGGTDNHLVLVDLRPKGLDGARAERVLELVSITANKNTCPGDRSAITPGGLRLGAPALTSRQFREDDFRRVVDFIDEGVNIGLEVKSKTAKLQDFKSFLLKDSETSQRLANLRQRVEQFARAFPMPGFDEH", "values": [{"measurement": "binding", "value": "binds"}]}
